Patent US20140162285A1, “Methods of Modulating Vesicular Trafficking” (The General Hospital Corporation, priority 2009, published 2014)
At least one peptide structure holds a part that was inferred or is arguable (an end, a ring closure or a residue). Peptide text beside a SMILES is read from it. * marks the point of attachment. FITC = O=C1OC2(c3ccc(O)cc3Oc3cc(O)ccc32)c2ccc(NC(=S)*)cc21; βAla = NCCC(=O)O

Experiments:
Assay type in all cases: cell-based, mouse
MTC cells [1] = assay: intracellular delivery of cell penetrating peptides, confocal microscopy; conditions: 5 μM peptide, 10 minutes at 37° C.
MTC cells [2] = assay: live real-time confocal microscopy of trafficking of peptide and labeled albumin; conditions: endosomal/lysosomal protein degradative pathway
MTC cells [3] = assay: fluorimetric cell-population assay of megalin/cubilin-dependent albumin-Alexa555 uptake; conditions: 5 μM peptide pre-incubated 10 min; albumin-Alexa555 200 μg/ml

With `CSCC[C@H](NC(=O)CCNC(=S)Nc1ccc2c(c1)C(=O)OC21c2ccc(O)cc2Oc2cc(O)ccc21)C(=O)NCC(=O)N[C@@H](CO)C(=O)N[C@@H](CC(C)C)C(=O)N[C@@H](Cc1ccccc1)C(=O)N[C@@H](CCCNC(=N)N)C(=O)N[C@@H](CO)C(=O)N[C@@H](CCC(=O)O)C(=O)N[C@@H](CO)C(=O)N[C@@H](CCSC)C(=O)N[C@@H](CS)C(=O)N[C@@H](CC(C)C)C(=O)N[C@@H](C)C(=O)N[C@@H](CCC(N)=O)C(=O)N[C@@H](CC(C)C)C(=O)N[C@@H](Cc1ccccc1)C(=O)N[C@@H](CC(C)C)C(=O)N[C@@H](Cc1ccc(O)cc1)C(=O)NCC(=O)N[C@@H](CCCNC(=N)N)C(=O)N[C@@H](CCCCN)C(=O)N[C@@H](CCCCN)C(=O)N[C@@H](CCCNC(=N)N)C(=O)N[C@@H](CCCNC(=N)N)C(=O)N[C@@H](CCC(N)=O)C(=O)N[C@@H](CCCNC(=N)N)C(=O)N[C@@H](CCCNC(=N)N)C(=O)N[C@@H](CCCNC(=N)N)C(=O)O` [FITC-a2N-01-TAT] ({FITC-βAla}-MGSLFRSESMCLAQLFLYGRKKRRQRRR-OH; C-terminus assumed) the “delivery to intracellular vesicular compartments of MTC cells” value (MTC cells [1]) was “specific and efficient delivery”, the “colocalization with labeled albumin, overlap coefficient R” value (MTC cells [2]) was 0.994 and the “effect on vesicular trafficking within endosomal/lysosomal protein degradation pathway (albumin-Alexa555 uptake)” value (MTC cells [3]) was “greatly modified”.
